Reference: publication PMC5515951
Results are given in words; binding and its absence hold for the method and conditions named. Binding seen in cells or lysates may run through a third protein. Some binding calls cover weakened binding; strength is not graded here.

How the values were obtained:
Hsp27 (Drosophila) = target: T1, Hsp27 (Drosophila) (UniProt P02518); assay: co-IP; homogenised fly heads (Appl > Hsp26 or Appl > Hsp27); lysis buffer 20 mM Tris-HCl pH 7.5, 100 mM NaCl, 0.5 mM EDTA, 0.5% NP40; precleared with normal IgG; IP with rabbit polyclonal anti-Hsp26 or anti-Hsp27 and protein A/G-agarose at 4 °C overnight; washed 6 times with 500 mM NaCl buffer; blot with anti-p53; IgG as control
T1 sequence: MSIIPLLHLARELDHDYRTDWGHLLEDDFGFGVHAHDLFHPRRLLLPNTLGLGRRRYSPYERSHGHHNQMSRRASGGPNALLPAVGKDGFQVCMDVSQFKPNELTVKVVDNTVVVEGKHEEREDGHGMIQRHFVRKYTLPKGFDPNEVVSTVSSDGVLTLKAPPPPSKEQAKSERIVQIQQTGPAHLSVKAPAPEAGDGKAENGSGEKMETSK

Hsp26 (Drosophila) = target: T2, Hsp26 (Drosophila) (UniProt P02517); assay: as above
T2 sequence: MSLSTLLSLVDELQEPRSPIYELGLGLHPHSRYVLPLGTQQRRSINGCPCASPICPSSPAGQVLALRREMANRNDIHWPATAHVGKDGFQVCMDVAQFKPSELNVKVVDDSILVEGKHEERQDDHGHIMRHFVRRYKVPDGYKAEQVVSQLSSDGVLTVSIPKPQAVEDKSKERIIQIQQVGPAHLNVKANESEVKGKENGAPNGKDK

B1: p53 (protein, UniProt Q9N6D8 1-385)
chain: MYISQPMSWHKESTDSEDDSTEVDIKEDIPKTVEVSGSELTTEPMAFLQGLNSGNLMQFSQQSVLREMMLQDIQIQANTLPKLENHNIGGYCFSMVLDEPPKSLWMYSIPLNKLYIRMNKAFNVDVQFKSKMPIQPLNLRVFLCFSNDVSAPVVRCQNHLSVEPLTANNAKMRESLLRSENPNSVYCGNAQGKGISERFSVVVPLNMSRSVTRSGLTRQTLAFKFVCQNSCIGRKETSLVFCLEKACGDIVGQHVIHVKICTCPKRDRIQDERQLNSKKRKSVPEAAEEDEPSKVRRCIAIKTEDTESNDSRDCDDSAAEWNVSRTPDGDYRLAITCPNKEWLLQSIEGMIKEAAAEVLRNPNQENLRRHANKLLSLKKRAYELP
binding (Hsp27 (Drosophila)): binds
binding (Hsp26 (Drosophila)): binds
